In publication PMC6658674:
Substitutions are numbered along the chain they refer to. Results are given in words; binding and its absence hold for the method and conditions named. Some results given as binding are weak or reduced against the parent protein; the word gives no strength.

What was measured:
Assay in all cases: two-hybrid; Gal4 BD fusions (pGBT9) of Pex3 and Gal4 AD fusions (pGAD424) of Pex19 or TbPex3 in S. cerevisiae HF7c; growth on -His -Leu -Trp medium
ScPex3 (S. cerevisiae) = target: T1, ScPex3 (S. cerevisiae) (UniProt P28795)
T1 sequence: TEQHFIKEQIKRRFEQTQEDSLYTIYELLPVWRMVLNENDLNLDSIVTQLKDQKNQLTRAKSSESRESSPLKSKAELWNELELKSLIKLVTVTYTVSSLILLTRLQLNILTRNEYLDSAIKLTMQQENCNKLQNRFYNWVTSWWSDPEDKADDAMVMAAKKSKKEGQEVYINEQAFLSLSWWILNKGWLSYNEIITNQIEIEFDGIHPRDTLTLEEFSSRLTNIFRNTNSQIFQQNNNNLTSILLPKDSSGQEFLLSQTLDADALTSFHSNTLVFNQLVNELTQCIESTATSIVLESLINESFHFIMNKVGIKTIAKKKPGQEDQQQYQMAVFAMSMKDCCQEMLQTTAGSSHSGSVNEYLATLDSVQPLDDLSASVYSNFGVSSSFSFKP

[1] = target: T2, ScPex3-W128A (S. cerevisiae) (UniProt P28795)
T2 sequence: T1 sequence with W78A

[2] = target: T3, ScPex3-Y144A (S. cerevisiae) (UniProt P28795)
T3 sequence: T1 sequence with Y94A

[3] = target: T4, ScPex3-K124A (S. cerevisiae) (UniProt P28795)
T4 sequence: T1 sequence with K74A

B1: ScPex19 (protein, UniProt Q07418 1-342)
chain: MNENEYDNFDDLDDLLDEDPTKLDEAEPDDVQAKGSVYNDSENKEKNAESKDSDGVQVANESEEDPELKEMMVDLQNEFANLMKNNGNENNVKTEDFNKLISALEEAAKVPHQQMEQGCSSLKSNSTDKGTVNGSNPGFKNIVSNTLDRLKENGNKVDTSLAEETKESQRSGQNNNIDDILSQLLDQMVASGGKESAENQFDLKDGEMDDAITKILDQMTSKEVLYEPMKEMRSEFGVWFQENGENEEHKEKIGTYKRQFNIVDEIVNIYELKDYDELKHKDRVTELLDELEQLGDSPIRSANSPLKHGNEEEELMKMLEIDGNDPNLGNLDKELTDGCKQQ
binding (ScPex3 (S. cerevisiae)): binds | binding [1]: no binding | binding [2]: no binding | binding [3]: binds
